Read-outs that look alike come from different tables or passages of the source. No constants are given. Whether binding was seen depends on the method and setting. For part of these data: Binding seen in cells or lysates may run through a third protein. Some results given as binding are weak or reduced against the parent protein; the word gives no strength. Each block holds one binder with its values, some of them ahead of it.
Assays:
[1] = target: T1, Vtc2-TAPm (S. cerevisiae) (UniProt P43585); experiment: affinity co-purification of the endogenous complex
T1 sequence: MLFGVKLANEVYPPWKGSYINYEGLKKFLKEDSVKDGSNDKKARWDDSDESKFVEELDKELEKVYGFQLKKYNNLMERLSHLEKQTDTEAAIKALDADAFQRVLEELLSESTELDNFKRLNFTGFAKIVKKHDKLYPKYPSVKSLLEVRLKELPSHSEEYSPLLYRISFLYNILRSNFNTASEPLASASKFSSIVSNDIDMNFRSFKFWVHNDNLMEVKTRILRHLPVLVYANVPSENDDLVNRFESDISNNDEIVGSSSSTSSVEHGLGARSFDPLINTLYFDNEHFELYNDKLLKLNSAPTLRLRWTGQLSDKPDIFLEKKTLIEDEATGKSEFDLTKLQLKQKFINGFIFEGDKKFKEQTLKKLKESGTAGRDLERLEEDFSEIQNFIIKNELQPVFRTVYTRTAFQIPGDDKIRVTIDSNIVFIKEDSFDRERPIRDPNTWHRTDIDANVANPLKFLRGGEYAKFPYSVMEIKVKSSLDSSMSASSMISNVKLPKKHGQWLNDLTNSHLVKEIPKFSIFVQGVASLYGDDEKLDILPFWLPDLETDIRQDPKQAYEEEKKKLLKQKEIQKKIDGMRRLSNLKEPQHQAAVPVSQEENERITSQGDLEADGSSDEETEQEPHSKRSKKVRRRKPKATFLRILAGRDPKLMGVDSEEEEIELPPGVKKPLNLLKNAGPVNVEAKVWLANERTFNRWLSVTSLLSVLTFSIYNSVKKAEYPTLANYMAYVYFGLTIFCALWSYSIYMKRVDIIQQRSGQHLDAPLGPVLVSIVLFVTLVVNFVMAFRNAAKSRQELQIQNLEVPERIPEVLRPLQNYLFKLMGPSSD

[2] = target: T2, Vtc3(Δlp) (S. cerevisiae) (UniProt Q02725); experiment: affinity co-purification of the endogenous complex
T2 sequence: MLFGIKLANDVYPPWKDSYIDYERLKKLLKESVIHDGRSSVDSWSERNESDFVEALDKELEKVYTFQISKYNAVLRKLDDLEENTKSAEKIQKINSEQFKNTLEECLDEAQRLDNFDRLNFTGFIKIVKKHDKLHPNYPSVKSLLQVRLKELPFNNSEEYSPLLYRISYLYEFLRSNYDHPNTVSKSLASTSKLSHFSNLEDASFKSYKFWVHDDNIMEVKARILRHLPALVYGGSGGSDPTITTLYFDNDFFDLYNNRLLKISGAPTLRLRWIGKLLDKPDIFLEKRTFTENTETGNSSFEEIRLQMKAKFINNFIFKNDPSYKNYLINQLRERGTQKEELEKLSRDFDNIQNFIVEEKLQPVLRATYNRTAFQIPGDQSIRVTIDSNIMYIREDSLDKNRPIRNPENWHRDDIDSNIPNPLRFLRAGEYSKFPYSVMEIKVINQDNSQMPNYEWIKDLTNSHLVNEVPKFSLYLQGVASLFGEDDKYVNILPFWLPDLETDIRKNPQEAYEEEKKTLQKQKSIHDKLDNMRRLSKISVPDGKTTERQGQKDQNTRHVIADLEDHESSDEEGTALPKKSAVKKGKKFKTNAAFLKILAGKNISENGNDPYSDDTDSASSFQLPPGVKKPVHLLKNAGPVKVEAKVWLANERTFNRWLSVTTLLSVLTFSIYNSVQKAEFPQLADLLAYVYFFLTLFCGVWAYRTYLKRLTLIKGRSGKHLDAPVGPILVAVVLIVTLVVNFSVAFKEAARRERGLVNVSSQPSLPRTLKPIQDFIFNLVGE

Vtc3-TAPm = target: T3, Vtc3-TAPm (S. cerevisiae, UniProt Q02725 1-835); experiment: co-IP
T3 sequence: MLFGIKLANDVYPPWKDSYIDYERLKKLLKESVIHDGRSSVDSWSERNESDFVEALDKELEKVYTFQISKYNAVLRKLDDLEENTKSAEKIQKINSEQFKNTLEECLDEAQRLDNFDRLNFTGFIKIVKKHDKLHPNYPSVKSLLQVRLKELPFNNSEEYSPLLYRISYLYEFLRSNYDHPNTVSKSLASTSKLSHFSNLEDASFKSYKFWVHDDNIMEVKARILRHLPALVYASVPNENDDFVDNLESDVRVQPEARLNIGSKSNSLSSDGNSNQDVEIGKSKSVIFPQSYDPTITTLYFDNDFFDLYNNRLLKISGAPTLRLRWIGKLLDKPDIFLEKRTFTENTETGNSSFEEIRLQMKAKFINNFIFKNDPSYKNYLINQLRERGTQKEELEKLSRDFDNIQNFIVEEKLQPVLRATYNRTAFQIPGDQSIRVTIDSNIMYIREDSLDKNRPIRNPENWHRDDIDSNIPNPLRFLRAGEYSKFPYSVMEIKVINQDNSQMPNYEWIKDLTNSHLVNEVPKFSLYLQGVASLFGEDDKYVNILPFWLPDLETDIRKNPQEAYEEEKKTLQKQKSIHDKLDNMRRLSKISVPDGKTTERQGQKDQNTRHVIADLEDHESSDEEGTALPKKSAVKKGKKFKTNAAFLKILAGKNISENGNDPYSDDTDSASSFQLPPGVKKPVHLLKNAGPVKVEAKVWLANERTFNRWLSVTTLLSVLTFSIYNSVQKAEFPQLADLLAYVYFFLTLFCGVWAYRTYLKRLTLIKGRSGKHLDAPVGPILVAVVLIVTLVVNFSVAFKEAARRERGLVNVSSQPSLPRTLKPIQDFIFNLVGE

[3] = target: T1, Vtc2-TAPm (S. cerevisiae); experiment: co-IP
[4] = target: T1, Vtc2-TAPm (S. cerevisiae); experiment: affinity co-purification of the endogenous complex; remark: listed apart in the source
[5] = target: T2, Vtc3(Δlp) (S. cerevisiae); experiment: affinity co-purification of the endogenous complex; remark: listed apart in the source

B2: Vtc2-Strep (protein, UniProt P43585 1-828)
chain: MLFGVKLANEVYPPWKGSYINYEGLKKFLKEDSVKDGSNDKKARWDDSDESKFVEELDKELEKVYGFQLKKYNNLMERLSHLEKQTDTEAAIKALDADAFQRVLEELLSESTELDNFKRLNFTGFAKIVKKHDKLYPKYPSVKSLLEVRLKELPSHSEEYSPLLYRISFLYNILRSNFNTASEPLASASKFSSIVSNDIDMNFRSFKFWVHNDNLMEVKTRILRHLPVLVYANVPSENDDLVNRFESDISNNDEIVGSSSSTSSVEHGLGARSFDPLINTLYFDNEHFELYNDKLLKLNSAPTLRLRWTGQLSDKPDIFLEKKTLIEDEATGKSEFDLTKLQLKQKFINGFIFEGDKKFKEQTLKKLKESGTAGRDLERLEEDFSEIQNFIIKNELQPVFRTVYTRTAFQIPGDDKIRVTIDSNIVFIKEDSFDRERPIRDPNTWHRTDIDANVANPLKFLRGGEYAKFPYSVMEIKVKSSLDSSMSASSMISNVKLPKKHGQWLNDLTNSHLVKEIPKFSIFVQGVASLYGDDEKLDILPFWLPDLETDIRQDPKQAYEEEKKKLLKQKEIQKKIDGMRRLSNLKEPQHQAAVPVSQEENERITSQGDLEADGSSDEETEQEPHSKRSKKVRRRKPKATFLRILAGRDPKLMGVDSEEEEIELPPGVKKPLNLLKNAGPVNVEAKVWLANERTFNRWLSVTSLLSVLTFSIYNSVKKAEYPTLANYMAYVYFGLTIFCALWSYSIYMKRVDIIQQRSGQHLDAPLGPVLVSIVLFVTLVVNFVMAFRNAAKSRQELQIQNLEVPERIPEVLRPLQNYLFKLMGPSSD
- binding (Vtc3-TAPm): no binding

B3: Vtc3-Strep (protein, UniProt Q02725 1-835)
chain: MLFGIKLANDVYPPWKDSYIDYERLKKLLKESVIHDGRSSVDSWSERNESDFVEALDKELEKVYTFQISKYNAVLRKLDDLEENTKSAEKIQKINSEQFKNTLEECLDEAQRLDNFDRLNFTGFIKIVKKHDKLHPNYPSVKSLLQVRLKELPFNNSEEYSPLLYRISYLYEFLRSNYDHPNTVSKSLASTSKLSHFSNLEDASFKSYKFWVHDDNIMEVKARILRHLPALVYASVPNENDDFVDNLESDVRVQPEARLNIGSKSNSLSSDGNSNQDVEIGKSKSVIFPQSYDPTITTLYFDNDFFDLYNNRLLKISGAPTLRLRWIGKLLDKPDIFLEKRTFTENTETGNSSFEEIRLQMKAKFINNFIFKNDPSYKNYLINQLRERGTQKEELEKLSRDFDNIQNFIVEEKLQPVLRATYNRTAFQIPGDQSIRVTIDSNIMYIREDSLDKNRPIRNPENWHRDDIDSNIPNPLRFLRAGEYSKFPYSVMEIKVINQDNSQMPNYEWIKDLTNSHLVNEVPKFSLYLQGVASLFGEDDKYVNILPFWLPDLETDIRKNPQEAYEEEKKTLQKQKSIHDKLDNMRRLSKISVPDGKTTERQGQKDQNTRHVIADLEDHESSDEEGTALPKKSAVKKGKKFKTNAAFLKILAGKNISENGNDPYSDDTDSASSFQLPPGVKKPVHLLKNAGPVKVEAKVWLANERTFNRWLSVTTLLSVLTFSIYNSVQKAEFPQLADLLAYVYFFLTLFCGVWAYRTYLKRLTLIKGRSGKHLDAPVGPILVAVVLIVTLVVNFSVAFKEAARRERGLVNVSSQPSLPRTLKPIQDFIFNLVGE
- binding [3]: no binding

Further lines, results first:

- binding [1]: binds
- binding [2]: binds
B1: Vtc1 (natural protein)
chain: MSSAPLLQRTPGKKIALPTRVEPKVFFANERTFLSWLNFTVMLGGLGVGLLNFGDKIGRVSAGLFTFVAMGTMIYALVTYHWRAAAIRRRGSGPYDDRLGPTLLCFFLLVAVIINFILRLKYNDANTKL

- binding [4]: binds
- binding [5]: binds
B4: Vtc4 (natural protein)
chain: MKFGEHLSKSLIRQYSYYYISYDDLKTELEDNLSKNNGQWTQELETDFLESLEIELDKVYTFCKVKHSEVFRRVKEVQEQVQHTVRLLDSNNPPTQLDFEILEEELSDIIADVHDLAKFSRLNYTGFQKIIKKHDKKTGFILKPVFQVRLDSKPFFKENYDELVVKISQLYDIARTSGRPIKGDSSAGGKQQNFVRQTTKYWVHPDNITELKLIILKHLPVLVFNTNKEFEREDSAITSIYFDNENLDLYYGRLRKDEGAEAHRLRWYGGMSTDTIFVERKTHREDWTGEKSVKARFALKERHVNDFLKGKYTVDQVFAKMRKEGKKPMNEIENLEALASEIQYVMLKKKLRPVVRSFYNRTAFQLPGDARVRISLDTELTMVREDNFDGVDRTHKNWRRTDIGVDWPFKQLDDKDICRFPYAVLEVKLQTQLGQEPPEWVRELVGSHLVEPVPKFSKFIHGVATLLNDKVDSIPFWLPQMDVDIRKPPLPTNIEITRPGRSDNEDNDFDEDDEDDAALVAAMTNAPGNSLDIEESVGYGATSAPTSNTNHVVESANAAYYQRKIRNAENPISKKYYEIVAFFDHYFNGDQISKIPKGTTFDTQIRAPPGKTICVPVRVEPKVYFATERTYLSWLSISILLGGVSTTLLTYGSPTAMIGSIGFFITSLAVLIRTVMVYAKRVVNIRLKRAVDYEDKIGPGMVSVFLILSILFSFFCNLVAK

From paper doi:10.1101/2023.01.27.525886 (bioRxiv, 2023)
